{"source": "PubChem BioAssay AID1347131", "about": "(National Center for Advancing Translational Sciences (NCATS), 2019)", "note": "Among all 410,000 compounds or so, about 2,000 (0.49%) were called active. This list was built around the results that the source calls inconclusive (neither active nor inactive); the mix of calls is not that of the screen. The call rests on the fitted dose curve; tested in HEK293 reporter line. Potencies of inconclusive entries are doubtful fits and often do not repeat. Potency means the concentration at half of the fitted maximal effect.", "data": [{"test": "qHTS Assay for Foot and Mouth Disease Virus Antivirals: Primary Screen against the MLPCN compound library; further: nearly all actives have a fitted effect of over 55% in size", "settings": "FMDV antiviral cell-based qHTS; activity, negative = inhibition: at 57.9 µM (top of the series)", "values": [{"compound": "CC(C)CCN1CN(S(=O)(=O)c2cccs2)c2nc3ccccc3nc21", "Potency": "inconclusive: 6.31 µM [inhibitor, full curve]"}, {"compound": "CCOc1c(Br)cc(CNc2ccc(N3CCOCC3)cc2)cc1OC", "Potency": "inconclusive: 6.31 µM [inhibitor, partial curve, poor fit]"}, {"compound": "COc1cc2c(cc1OC)C(COc1cc(C)cc(C)c1)N(C(=O)C(C)(C)C)CC2", "note": "(stereo unspecified)", "Potency": "inconclusive: 5.01 µM [inhibitor, partial curve, poor fit]"}, {"compound": "COc1ccccc1OCC(=O)NNC(=O)C1CCN(c2ncnc3sc(C)c(C)c23)CC1", "Potency": "inconclusive: 17.8 µM [inhibitor, partial curve, poor fit]"}, {"compound": "COCCn1c(SCc2nc3scc(-c4ccc(Cl)cc4)c3c(=O)[nH]2)nnc1-c1cccc(C)c1", "Potency": "inconclusive: 39.8 µM [inhibitor, partial curve, poor fit]"}, {"compound": "CCn1c(=O)c([N+](=O)[O-])c(Cl)c2ccccc21", "Potency": "inconclusive: 22.4 µM [inhibitor, partial curve, poor fit]"}, {"compound": "O=C(CSc1nc2[nH]c(=O)[nH]c(=O)c2s1)Nc1cccc(F)c1", "activity, negative = inhibition": "inconclusive: -30.6% [inhibitor]"}, {"compound": "Cc1c(NC(=O)c2ccc(-c3ccccc3)cc2)cccc1C(=O)O", "Potency": "active: 5.01 µM"}, {"compound": "CCOCC(=O)Nc1nc2ccc(C)cc2s1", "Potency": "inconclusive: 39.8 µM [inhibitor, single point]"}, {"compound": "CCCC(=O)N1CCN(c2nc(CC(C)C)c3c(c2C#N)CCC3)CC1", "activity, negative = inhibition": "inactive: -32%"}, {"compound": "COCC(C)n1c(C)cc(C(=O)COC(=O)c2cc(=O)[nH]c3ccccc23)c1C", "note": "(stereo unspecified)", "activity, negative = inhibition": "inactive: -25.1%"}, {"compound": "CCN(CC)S(=O)(=O)c1cccc(NC(=O)COC(=O)c2[nH]c(C)c(C(C)=O)c2C)c1", "Potency": "inconclusive: 11.2 µM [inhibitor, partial curve, poor fit]"}, {"compound": "CCc1ccc(/C=C2\\SC(=S)N(CCCC(=O)Nc3ccccn3)C2=O)cc1", "Potency": "inconclusive: 20 µM [inhibitor, partial curve, poor fit]"}, {"compound": "OCCOc1nnnn1-c1ccccc1", "Potency": "inconclusive: 7.94 µM [inhibitor, partial curve, poor fit]"}, {"compound": "Cc1cc(/C=C/c2ccc3cc(N(C)C)ccc3[n+]2C)c(C)n1-c1ccccc1", "Potency": "inconclusive: 14.1 µM [inhibitor, partial curve, poor fit]"}, {"compound": "Cc1noc(Cn2c(=O)c3ccccc3n(CC(=O)Nc3cc(Cl)ccc3C)c2=O)n1", "Potency": "inconclusive: 1.58 µM [inhibitor, full curve]"}, {"compound": "Cc1ccc(NN2C(=O)C=C(c3ccc(Cl)cc3)C2=O)cc1", "Potency": "inconclusive: 39.8 µM [inhibitor, partial curve, poor fit]"}, {"compound": "Cn1c(=O)oc2cc(S(=O)(=O)N3CCCc4ccccc43)ccc21", "Potency": "inconclusive: 39.8 µM [inhibitor, partial curve, poor fit]"}, {"compound": "O=C1C(=C(I)I)c2ccccc2-c2ccccc21", "Potency": "inconclusive: 17.8 µM [inhibitor, partial curve, poor fit]"}, {"compound": "CN(C1=C(NC(=O)c2ccccc2)C(=O)c2ccccc2C1=O)C1CCS(=O)(=O)C1", "note": "(stereo unspecified)", "Potency": "inconclusive: 10 µM [inhibitor, partial curve, poor fit]"}, {"compound": "COc1ccc(CCNc2ncnc3sc(C)cc23)cc1OC", "Potency": "inconclusive: 31.6 µM [inhibitor, partial curve, poor fit]"}, {"compound": "Cc1nc2sc(-c3ccccc3)cc2c(=O)n1N", "Potency": "inconclusive: 39.8 µM [inhibitor, partial curve, poor fit]"}, {"compound": "O=C(NCCN1CCC(n2c(=O)[nH]c3ccccc32)CC1)c1ccc(C(F)(F)F)cc1C(F)(F)F", "Potency": "inconclusive: 20 µM [inhibitor, partial curve, poor fit]"}, {"compound": "O=C(Nc1nc(-c2cccc([N+](=O)[O-])c2)cs1)C(c1ccccc1)c1ccccc1", "Potency": "inconclusive: 14.1 µM [inhibitor, partial curve, poor fit]"}, {"compound": "CN(C)c1ccc(-c2nc(-c3ccccn3)no2)cc1[N+](=O)[O-]", "Potency": "inconclusive: 22.4 µM [inhibitor, single point]"}, {"compound": "C=CCC1(C(=O)N(C)Cc2ccccc2)CCN(C(=O)OC(C)(C)C)CC1", "Potency": "inconclusive: 11.2 µM [inhibitor, partial curve]"}, {"compound": "CN1C(=O)c2ccc(NC(=O)c3ccc(N4CCCCC4)c([N+](=O)[O-])c3)cc2C1=O", "Potency": "inconclusive: 17.8 µM [inhibitor, partial curve, poor fit]"}, {"compound": "CCOC(=O)Cn1nc(C)c(NC(=O)COc2ccc(OC)cc2)c1C", "activity, negative = inhibition": "inactive: -31.4%"}, {"compound": "COc1cccc(F)c1C(C[N+](=O)[O-])c1c(N)n(C)c(=O)n(C)c1=O", "note": "(stereo unspecified)", "Potency": "inconclusive: 31.6 µM [inhibitor, partial curve, poor fit]"}, {"compound": "COc1ccc(CC(=O)Nc2cccc(-c3nnc(-c4ccc(C)cc4)o3)c2)cc1OC", "Potency": "inconclusive: 3.98 µM [inhibitor, full curve, poor fit]"}, {"compound": "O=C(O)CCCCCN1C(=O)/C(=C\\c2cn(-c3ccccc3)nc2-c2cccs2)SC1=S", "Potency": "inconclusive: 12.6 µM [inhibitor, partial curve]"}, {"compound": "Cc1ccc(CNC(=O)c2ccc3c(=O)c(O)c(-c4ccc(C)cc4)[nH]c3c2)cc1", "Potency": "inconclusive: 10 µM [inhibitor, partial curve, poor fit]"}, {"compound": "CCOC(=O)c1cnc(-n2nc(C)cc2C)nc1NCc1ccccc1", "Potency": "inconclusive: 28.2 µM [inhibitor, single point]"}, {"compound": "CCOc1cc(CN2CCCC(CNC(=O)c3ccc(F)cc3)C2)ccc1OC", "note": "(stereo unspecified)", "Potency": "inconclusive: 7.94 µM [inhibitor, partial curve, poor fit]"}, {"compound": "Cc1[nH]n(-c2nc(-c3ccc(Cl)cc3)cs2)c(=O)c1N=Nc1ccc(O)cc1", "Potency": "inconclusive: 7.94 µM [inhibitor, full curve, poor fit]"}, {"compound": "CCN1/C(=C/C=C/C2=[N+](CC)c3ccccc3C2(C)C)C(C)(C)c2ccccc21", "Potency": "inconclusive: 3.55 µM [inhibitor, partial curve, poor fit]"}]}]}
